Where two headings read alike, the source gives them in different places. Results are given in words; binding and its absence hold for the method and conditions named. Binding seen in cells or lysates may run through a third protein. These calls come from enrichment with a bait or labelling near it, and not all partners need be listed. Tags and fused reporters may be left off the sequences shown.
T1: C-terminally TAP-tagged Tif4631p (S. cerevisiae) (UniProt P39935)
T1 sequence: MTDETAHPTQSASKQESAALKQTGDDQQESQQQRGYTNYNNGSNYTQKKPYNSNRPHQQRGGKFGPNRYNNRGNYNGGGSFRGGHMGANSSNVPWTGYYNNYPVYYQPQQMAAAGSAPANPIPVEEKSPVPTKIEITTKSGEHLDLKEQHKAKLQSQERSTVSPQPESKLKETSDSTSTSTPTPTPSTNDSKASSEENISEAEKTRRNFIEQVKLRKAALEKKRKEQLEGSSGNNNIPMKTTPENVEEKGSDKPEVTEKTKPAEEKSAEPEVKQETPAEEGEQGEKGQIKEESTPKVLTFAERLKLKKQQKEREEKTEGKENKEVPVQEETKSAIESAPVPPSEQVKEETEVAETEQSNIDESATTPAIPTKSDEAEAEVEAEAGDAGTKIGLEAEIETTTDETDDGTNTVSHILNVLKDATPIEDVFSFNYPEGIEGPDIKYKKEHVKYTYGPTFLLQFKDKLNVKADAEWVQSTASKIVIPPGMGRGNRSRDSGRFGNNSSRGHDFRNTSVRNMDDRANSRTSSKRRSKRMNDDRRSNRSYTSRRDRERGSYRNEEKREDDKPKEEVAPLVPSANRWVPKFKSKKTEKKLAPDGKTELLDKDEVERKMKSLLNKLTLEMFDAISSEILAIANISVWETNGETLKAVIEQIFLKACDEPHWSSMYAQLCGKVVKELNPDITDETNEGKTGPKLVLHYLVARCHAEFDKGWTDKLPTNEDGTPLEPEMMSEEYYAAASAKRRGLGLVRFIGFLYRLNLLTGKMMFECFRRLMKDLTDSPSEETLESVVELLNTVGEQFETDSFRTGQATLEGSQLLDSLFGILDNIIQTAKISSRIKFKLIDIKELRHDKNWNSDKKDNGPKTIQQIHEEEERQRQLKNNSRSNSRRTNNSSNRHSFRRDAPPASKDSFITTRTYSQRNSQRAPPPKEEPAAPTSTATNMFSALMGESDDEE

Sequences of proteins named here, by UniProt entry; tags and fusion partners are left off.
UniProt P24783: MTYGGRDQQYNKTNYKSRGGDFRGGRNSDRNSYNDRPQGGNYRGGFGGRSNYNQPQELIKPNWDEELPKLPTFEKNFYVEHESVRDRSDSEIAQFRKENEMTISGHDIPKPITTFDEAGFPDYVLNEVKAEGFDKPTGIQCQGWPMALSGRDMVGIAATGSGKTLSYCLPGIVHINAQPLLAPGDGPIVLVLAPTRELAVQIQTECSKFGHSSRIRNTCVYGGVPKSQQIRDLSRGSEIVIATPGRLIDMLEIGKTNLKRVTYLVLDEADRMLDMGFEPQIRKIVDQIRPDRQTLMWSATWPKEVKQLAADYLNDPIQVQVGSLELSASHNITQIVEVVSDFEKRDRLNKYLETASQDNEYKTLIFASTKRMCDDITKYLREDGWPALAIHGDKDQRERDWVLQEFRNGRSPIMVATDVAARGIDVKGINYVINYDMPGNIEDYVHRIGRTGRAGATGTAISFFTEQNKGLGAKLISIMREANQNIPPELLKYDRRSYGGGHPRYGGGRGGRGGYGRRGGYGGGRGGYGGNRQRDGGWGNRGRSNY
UniProt P34160: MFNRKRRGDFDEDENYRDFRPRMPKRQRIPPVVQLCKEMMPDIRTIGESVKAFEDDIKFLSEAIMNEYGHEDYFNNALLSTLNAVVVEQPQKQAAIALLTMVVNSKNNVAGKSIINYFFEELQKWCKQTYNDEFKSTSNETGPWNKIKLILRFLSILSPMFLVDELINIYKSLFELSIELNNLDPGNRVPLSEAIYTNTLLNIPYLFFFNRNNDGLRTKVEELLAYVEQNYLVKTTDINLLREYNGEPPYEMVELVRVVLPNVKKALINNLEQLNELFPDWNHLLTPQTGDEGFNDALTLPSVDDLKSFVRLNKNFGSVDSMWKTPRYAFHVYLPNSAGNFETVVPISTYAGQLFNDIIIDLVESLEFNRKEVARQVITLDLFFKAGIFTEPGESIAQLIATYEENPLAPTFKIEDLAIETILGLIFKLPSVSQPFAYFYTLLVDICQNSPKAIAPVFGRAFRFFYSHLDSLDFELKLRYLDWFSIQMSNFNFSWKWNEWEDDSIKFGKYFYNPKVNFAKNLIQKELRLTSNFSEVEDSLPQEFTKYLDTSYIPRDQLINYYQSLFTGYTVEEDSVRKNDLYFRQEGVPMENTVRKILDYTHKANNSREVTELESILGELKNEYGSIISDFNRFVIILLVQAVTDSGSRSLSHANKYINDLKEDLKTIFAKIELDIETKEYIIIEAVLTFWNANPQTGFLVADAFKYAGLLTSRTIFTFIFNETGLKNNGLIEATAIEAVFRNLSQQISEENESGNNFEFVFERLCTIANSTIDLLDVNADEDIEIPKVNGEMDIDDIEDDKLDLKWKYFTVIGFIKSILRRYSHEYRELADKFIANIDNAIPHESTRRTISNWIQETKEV

B1: Ski3p (protein, UniProt P17883 1-1432)
chain: MSDIKQLLKEAKQELTNRDYEETIEISEKVLKLDPDNYFAHIFLGKALSSLPASNNVSSNRNLERATNHYVSAAKLVPDNLLAWKGLFLLFRTTEVVPDILSYDEYFDLCGQYADALLKQEQSQVELINDIKLLKKTHPDCQKAFYQHLKPGSLMAETIGRHLSTPQDALLNLIKILSNIETTEIGKTLSQNRLKLKASDPDYQIKLNSFSWEIIKNSEIDQLYNQLVNILADDQKRSEIENQWLEYRIKVLKSMPLDVKKDFFTKVKEMVEDMVLVNHQSLLAWQKYFEWTDYEDLDNMDAPLIIKYFKKFPKDPLAMILYSWLSSKLSKYDIKSLESANKPPEGHKKTEKETDIKDVDETNEDEVKDRVEDEVKDRVEDEVKDQDEEAKEDEEEDLDDIEIGLLEEEVVTVLTENIVKCKNNILAHRILCQYYLLTKEYEAALPYIKNGISLIAYNIKDLGVHLPLTKREFSLDLATVYTYVDAPKDHNAALKLYDNILSGDFSNIQAKMGKGIIFIERKNWKDAMTLLTQVHEQSPNNLEVLSELSWSKAHMGYMDEALAGLDTVIKGIKGMDLRSIDFRALNLWRQAKVYIMKHASINDAKQENVKCAFKLLIQSIKILDTFAPGFSTLGDIYCHYYKDHLRAFKCYFKAFDLDAGDYTAAKYITETYASKPNWQAASSIASRLIKGEKAKAELRSNNWPFRVVGIAHLEKQEESDSIEWFQSALRVDPNDVESWVGLGQAYHACGRIEASIKVFDKAIQLRPSHTFAQYFKAISLCDVGEYLESLDILEKVCQEAATEESFQIGLVEVLMRCSLDLYSQGFLLKSVSIAKDTIERIKIIISELKCENQQVWIYLSQVLRLFIWIESKVDTLPVESLVSIFENSQFSGSEEIDSVDNIKIDTLLDSTTDDNVSIACKFLILASKYSVSDQKFTDIAGTVRASYWYNIGISELTAFITLKEPQYRDAAIFAFKKSIQLQSNTSETWIGLGIATMDINFRVSQHCFIKATALEPKATNTWFNLAMLGLKKKDTEFAQQVLNKLQSLAPQDSSPWLGMALILEEQGDIIGSSKLFAHSFILSNGRSKAAQFMYAKNVLENHINNGDDERDIETVEKLTTASIALEQFFKKSPDSQFALQCALLTLERLHHYENANELANRLIGILEKKFEKTQDERELFNFAIIKGQFARIHLGLGNFELSIENADLSQGIISESSDEKSMKTKISNHICLGLSYFFLNDFDQTLNQFQELLSISKDSKHLVVLIAKVLYDVGESDTKEIALQELTEYIATSGADLLVTLTIAAMSILDDKREDLSIILEELKALPLSKQIIDKHKDAPYLIEEITKRLYRNDTGKQVWQRSAYFFPNNLKVWERLDKNIQRRIASNGQNKVTAEEMSKLYCESKNLRSIQRGMFLCPWNVTAVKALNECF
B2: Upf3p (protein, UniProt P48412 1-387)
chain: MSNVAGELKNSEGKKKGRGNRYHNKNRGKSKNETVDPKKNENKVNNATNATHNNSKGRRNNKKRNREYYNYKRKARLGKSTENEGFKLVIRLLPPNLTADEFFAILRDNNNDDGDKQDIQGKLKYSDWCFFEGHYSSKVFKNSTYSRCNFLFDNLSDLEKCANFIKTCKFIDNKDNITIPDMKLSPYVKKFTQTSKKDAALVGTIEEDEIFKTFMNSMKQLNENDEYSFQDFSVLKSLEKEFSKSIELENKIAERTERVLTELVGTGDKVKNKNKKKKNKNAKKKFKEEEASAKIPKKKRNRGKKKRENREKSTISKTKNSNVVIIEEAGKEVLKQRKKKMLLQEKLKISNSSQPQSSSAQTQPSFQPKENLFVPRVKILHRDDTKK
B3: eIF4B (protein, UniProt P34167 1-436)
chain: MAPPKKTVKKMDLTSFLNDDTFGSSWAEEDVDLNKITIPIETANANTIPLSELAHAKNNSNNTRSGGFGGSFGGRSRLDPALGGGSSDRREEYPVPDAPPYRAVINNIPWDITPEGVQAWVEDGLVKPEAVEEVVLPKNLRDPTRLKGNAFVTLKERADLVAVLKFNGTKLNERTVYVSVAAPRRGGGADVDWSSARGSNFQGDGREDAPDLDWGAARGSNFRGPRREREEVDIDWTAARGSNFQGSSRPPRREREEVDIDWSAARGSNFQGSSRPPRREREEPDIDWSAARGSNFQSSSRPPRREREEPDIDWSAARGSNFQSSSRPPRREREKEEPALDWGAARGAQFGKPQQTKNTYKDRSLTNKKTTDEQPKIQKSVYDVLRTEDDDEDEEAEKQNGDAKENKVDAAVEKLQDKTAQLTVEDGDNWEVVGKK

How the values were obtained:
Assay in all cases: affinity purification with mass spectrometry
[1] = target: T1, C-terminally TAP-tagged Tif4631p (S. cerevisiae)
[2] = target: T1, C-terminally TAP-tagged Tif4631p (S. cerevisiae); remark: listed apart in the source
[3] = target: T1, C-terminally TAP-tagged Tif4631p (S. cerevisiae); remark: listed apart in the source

Molecule	binding [1]	binding [2]	binding [3]
Dbp2p (from UniProt P24783 1-546)	binds	binds	
Cbc1p (from UniProt P34160 1-861)	binds	binds	
B1			binds
B2		binds	binds
B3			binds
